Like-named read-outs stand apart in the source and are kept apart here.
Test system: Ae. aegypti L3 larvae
Test: whole plant or invertebrate
Details: Aedes aegypti

CN(C)CCOC(c1ccccc1)c1ccccc1 [Diphenhydramine]
mortality at 400 µM (0.5 h, read-out: percent mortality 0.5 hr): 0% | mortality at 400 µM (1 h, read-out: percent mortality 1 hr): 10% | mortality at 400 µM (2 h, read-out: percent mortality 2 hr): 10% | mortality at 400 µM (3 h, read-out: percent mortality 3 hr): 0% | mortality at 400 µM (4 h, read-out: percent mortality 4 hr): 0% | mortality at 400 µM (48 h, read-out: percent mortality 48 hr): 10% | mortality at 400 µM (72 h, read-out: percent mortality 72 hr): 0% | mortality at 400 µM ([…], read-out: percent mortality […]): 0%
